Test results reported in the supplement of paper PMC10849652.
Some of the results follow.

Sequences of proteins named here, by UniProt entry; tags and fusion partners are left off. A change or cut given only in a name is not applied to a line headed by its entry.
UniProt P62993, whole entry, looked up: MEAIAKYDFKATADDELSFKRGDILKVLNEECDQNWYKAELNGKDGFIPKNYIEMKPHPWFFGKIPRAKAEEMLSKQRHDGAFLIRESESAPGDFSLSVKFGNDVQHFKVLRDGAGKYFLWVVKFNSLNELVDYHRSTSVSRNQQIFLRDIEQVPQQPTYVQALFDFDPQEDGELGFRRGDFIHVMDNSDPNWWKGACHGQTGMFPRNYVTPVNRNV
UniProt Q92769, whole entry, looked up: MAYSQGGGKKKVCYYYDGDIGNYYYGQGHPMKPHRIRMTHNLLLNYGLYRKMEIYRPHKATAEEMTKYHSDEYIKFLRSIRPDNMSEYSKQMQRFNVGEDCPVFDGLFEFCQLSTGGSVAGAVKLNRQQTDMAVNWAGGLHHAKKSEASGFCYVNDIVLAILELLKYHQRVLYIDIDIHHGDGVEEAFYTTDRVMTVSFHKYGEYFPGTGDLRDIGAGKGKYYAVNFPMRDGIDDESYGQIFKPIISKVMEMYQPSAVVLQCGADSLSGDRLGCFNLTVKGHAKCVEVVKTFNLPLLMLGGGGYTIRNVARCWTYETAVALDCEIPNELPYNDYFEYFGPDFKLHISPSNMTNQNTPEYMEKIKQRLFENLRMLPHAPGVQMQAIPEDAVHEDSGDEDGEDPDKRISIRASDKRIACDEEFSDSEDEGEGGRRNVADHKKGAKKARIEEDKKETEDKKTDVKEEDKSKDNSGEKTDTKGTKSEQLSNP
UniProt P49590: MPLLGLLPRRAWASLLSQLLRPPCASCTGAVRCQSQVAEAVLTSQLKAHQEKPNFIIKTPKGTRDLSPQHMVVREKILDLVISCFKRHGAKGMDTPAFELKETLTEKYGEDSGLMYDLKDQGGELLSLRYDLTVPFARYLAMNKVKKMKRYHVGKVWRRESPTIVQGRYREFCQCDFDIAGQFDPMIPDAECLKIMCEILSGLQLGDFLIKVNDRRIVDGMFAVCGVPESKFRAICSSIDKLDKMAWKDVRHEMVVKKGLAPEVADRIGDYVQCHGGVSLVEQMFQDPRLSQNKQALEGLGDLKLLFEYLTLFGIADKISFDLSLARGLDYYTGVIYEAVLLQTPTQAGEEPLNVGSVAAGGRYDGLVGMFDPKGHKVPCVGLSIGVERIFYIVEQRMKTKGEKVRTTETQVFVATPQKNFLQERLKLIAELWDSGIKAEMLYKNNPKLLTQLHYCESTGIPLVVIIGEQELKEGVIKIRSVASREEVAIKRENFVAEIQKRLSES
UniProt Q9BXW7: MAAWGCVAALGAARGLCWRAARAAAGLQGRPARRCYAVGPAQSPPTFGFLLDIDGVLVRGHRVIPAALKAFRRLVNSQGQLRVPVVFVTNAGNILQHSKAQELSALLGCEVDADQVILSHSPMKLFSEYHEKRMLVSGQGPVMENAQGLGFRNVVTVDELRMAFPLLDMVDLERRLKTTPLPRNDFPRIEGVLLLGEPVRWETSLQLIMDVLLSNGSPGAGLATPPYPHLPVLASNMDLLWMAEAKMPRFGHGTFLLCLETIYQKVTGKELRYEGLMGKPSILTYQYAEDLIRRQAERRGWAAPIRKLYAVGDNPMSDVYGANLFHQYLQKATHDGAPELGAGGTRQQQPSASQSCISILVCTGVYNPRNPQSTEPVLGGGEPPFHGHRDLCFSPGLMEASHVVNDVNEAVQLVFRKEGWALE
UniProt Q9Y5Q8: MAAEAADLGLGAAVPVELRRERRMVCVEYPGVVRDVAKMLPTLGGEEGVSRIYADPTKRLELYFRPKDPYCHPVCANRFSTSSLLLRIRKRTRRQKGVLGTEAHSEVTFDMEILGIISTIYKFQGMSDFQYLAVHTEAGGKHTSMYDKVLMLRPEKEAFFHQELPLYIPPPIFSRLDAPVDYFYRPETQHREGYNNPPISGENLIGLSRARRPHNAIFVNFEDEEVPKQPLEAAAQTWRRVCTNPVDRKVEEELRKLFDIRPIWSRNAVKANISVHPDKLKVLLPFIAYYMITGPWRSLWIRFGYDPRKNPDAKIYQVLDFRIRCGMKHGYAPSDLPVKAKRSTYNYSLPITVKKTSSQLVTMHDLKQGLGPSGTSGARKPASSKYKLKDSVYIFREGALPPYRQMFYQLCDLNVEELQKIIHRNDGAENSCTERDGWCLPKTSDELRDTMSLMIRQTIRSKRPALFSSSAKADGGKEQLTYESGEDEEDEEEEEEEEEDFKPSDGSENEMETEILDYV
UniProt P13807: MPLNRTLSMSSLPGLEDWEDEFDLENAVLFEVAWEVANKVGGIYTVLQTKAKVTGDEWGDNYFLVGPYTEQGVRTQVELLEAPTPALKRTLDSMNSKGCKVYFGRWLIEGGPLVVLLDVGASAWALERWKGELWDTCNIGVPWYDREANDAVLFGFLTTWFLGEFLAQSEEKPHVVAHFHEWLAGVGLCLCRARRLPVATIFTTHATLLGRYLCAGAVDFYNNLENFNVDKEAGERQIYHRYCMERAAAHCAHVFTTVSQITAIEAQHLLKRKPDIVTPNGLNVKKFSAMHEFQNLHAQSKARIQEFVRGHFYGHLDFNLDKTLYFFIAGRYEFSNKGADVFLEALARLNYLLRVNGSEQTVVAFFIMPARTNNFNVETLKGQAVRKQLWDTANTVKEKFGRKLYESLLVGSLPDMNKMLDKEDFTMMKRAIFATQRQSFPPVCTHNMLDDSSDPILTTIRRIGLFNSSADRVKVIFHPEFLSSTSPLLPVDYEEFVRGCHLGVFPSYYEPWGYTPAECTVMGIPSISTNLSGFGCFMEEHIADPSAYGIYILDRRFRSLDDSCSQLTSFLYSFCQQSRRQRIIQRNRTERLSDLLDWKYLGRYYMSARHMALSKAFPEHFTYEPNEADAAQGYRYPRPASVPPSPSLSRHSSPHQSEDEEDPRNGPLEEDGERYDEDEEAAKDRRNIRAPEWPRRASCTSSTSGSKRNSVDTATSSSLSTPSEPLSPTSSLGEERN
UniProt Q7Z4Q2: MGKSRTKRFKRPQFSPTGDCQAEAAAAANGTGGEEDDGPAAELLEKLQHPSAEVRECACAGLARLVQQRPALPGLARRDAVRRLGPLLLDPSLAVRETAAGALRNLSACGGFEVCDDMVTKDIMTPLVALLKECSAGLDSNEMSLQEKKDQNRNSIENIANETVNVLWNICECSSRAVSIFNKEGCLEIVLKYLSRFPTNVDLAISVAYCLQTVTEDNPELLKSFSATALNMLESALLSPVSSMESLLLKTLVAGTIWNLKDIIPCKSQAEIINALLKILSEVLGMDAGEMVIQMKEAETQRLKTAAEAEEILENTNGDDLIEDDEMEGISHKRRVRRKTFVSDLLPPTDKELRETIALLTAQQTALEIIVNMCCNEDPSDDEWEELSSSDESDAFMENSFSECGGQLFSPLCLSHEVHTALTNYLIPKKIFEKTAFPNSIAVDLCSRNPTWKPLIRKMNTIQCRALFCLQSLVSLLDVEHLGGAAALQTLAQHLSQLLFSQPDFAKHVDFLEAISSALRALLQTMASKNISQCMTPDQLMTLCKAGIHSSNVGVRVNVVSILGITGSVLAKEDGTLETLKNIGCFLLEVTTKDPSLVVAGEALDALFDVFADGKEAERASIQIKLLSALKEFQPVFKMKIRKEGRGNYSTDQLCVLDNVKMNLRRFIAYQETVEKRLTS
UniProt P51858: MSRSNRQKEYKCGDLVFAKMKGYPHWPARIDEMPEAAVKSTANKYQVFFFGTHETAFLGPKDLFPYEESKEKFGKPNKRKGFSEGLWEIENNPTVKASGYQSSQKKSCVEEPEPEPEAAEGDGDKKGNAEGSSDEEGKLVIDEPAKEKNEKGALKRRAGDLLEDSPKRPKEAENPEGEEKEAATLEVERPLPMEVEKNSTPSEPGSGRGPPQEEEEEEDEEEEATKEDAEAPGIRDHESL

Legend:
Assay in all cases: log2 fold change, soluble protein after heating vs DMSO (PISA); higher = thermal stabilisation; K562 lysate, 10 uM; active = over 0.2 and 3.5 SD of the protein, either way, in both replicates (recomputed)
[1] = compound: C1=CC=C(C=C1)[C@H](COC2=CC3=C(C=C2)NC(=O)N3)NC(=O)C4=CC=CN(C4=O)CC5=CC(=C(C=C5)F)F
Method in brief: (§1)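 The values are log-two fold changes in thermal stability compared with solvent controls and come from duplicates. They were obtained by TMTpro 16plex LC-MS/MS, with channel sums equalised, on the supernatant after 21,000xg for 90 min. That supernatant came from crude K562 extract at 1 mg/mL protein treated with 10 μM compound for 30 min, heated for 3 min across 48°C-58°C, pooled and brought to 0.5% NP-40 at 4°C.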

[2] = compound: CC1=C(SC2=C1C(=N[C@H](C3=NN=C(N32)C)CC(=O)N)C4=CC=C(C=C4)Cl)C
Method in brief: as §1

[3] = compound: CC1=C2C(=CC=C1)N=C(N(C2=O)C3=CC=CC=C3C)CN4C=NC5=C(N=CN=C54)N
Method in brief: as §1

[4] = compound: Cc1sc2c(c1C)C(c1ccc(Cl)cc1)=N[C@@H](CC(=O)OC(C)(C)C)c1nnc(C)n1-2
Method in brief: as §1

[5] = compound: c1ccc([C@@H]2C[C@H]2NC2CCNCC2)cc1
Method in brief: as §1

Measured: log2 fold change

GRB2 (UniProt P62993)
inactive: [1] 0.063 | [2] -0.012 | [3] -0.001 | [4] -0.022 | [5] -0.002

HDAC2 (UniProt Q92769)
inactive: [1] 0.004 | [2] 0.002 | [3] -0.017 | [4] 0.02 | [5] -0.004

HARS2 (UniProt P49590)
inactive: [1] 0.06 | [2] -0.056 | [3] 0.04 | [4] -0.127 | [5] -0.02

HDHD5 (UniProt Q9BXW7)
inactive: [1] 0 | [2] 0.071 | [3] 0.032 | [4] -0.05 | [5] -0.012

GTF3C5 isoform 3 (UniProt Q9Y5Q8)
inactive: [1] -0.024 | [2] 0.001 | [3] 0.019 | [4] 0.056 | [5] 0.016

GYS1 (UniProt P13807)
inactive: [1] 0.204 | [2] -0.038 | [3] 0.027 | [4] -0.004 | [5] -0.021

HEATR3 (UniProt Q7Z4Q2)
inactive: [1] -0.101 | [2] 0.022 | [3] 0.008 | [4] -0.024 | [5] 0.028

H2AFX (UniProt P16104)
inactive: [1] 0.088 | [2] -0.044 | [3] 0.022 | [4] 0.08 | [5] -0.041

HDGF (UniProt P51858)
inactive: [1] 0.021 | [2] -0.005 | [3] -0.008 | [4] -0.015 | [5] 0.02
